The list shows only some results of the screen, not a fair sample: it is rich in T/C values a quarter to a half above the control, in often repeated tests (any T/C) and in doses without a T/C. Other doses and runs of a compound stand elsewhere. T/C gives the treated animals as a percentage of the vehicle group. Some doses have a count of surviving animals in place of a T/C: the source holds a T/C of zero for them, seemingly a mark for toxic or unscored doses. Some doses without a T/C left all or most animals alive at the check, yet need not have been tolerated: the source hardly ever lists a survival T/C far under the control, and the zero likely stands for such cases as well. Survivors were counted at the toxicity check, usually on the fifth day, unless a day is given; later deaths do not show. Schedules are NCI's codes, read here as Q, the interval in days (D) or hours (H), X, the number of doses. Some doses were run more than once; the values are given in rising order. Some schedule codes hold Z or #, which are not explained here. For survival time, the PubChem record calls one and a half times the control and up active, and a quarter to a half above the control has no call in these data; cut-offs in other NCI protocols can differ. Some T/C values carry the count of animals alive at the toxicity check (mostly the fifth day); where none is given, no animal had died by that day.

In this test the test system is L1210 leukemia ip in BDF1 mice, survival T/C. Briefly: NCI In Vivo Anticancer Drug Screen. Data for tumor model L1210 Leukemia (intraperitoneal) in B6D2F1 (BDF1) mice. The conditions noted are these: higher T/C = longer survival.
The mark [1] stands for this setting: T/C endpoint: mean survival time, dose: 100.0 mg/kg/injection, schedule: Q01DX009 (ip), vehicle: Klucel (hydroxypropylcellulose) (HPC).
Setting [2] is: T/C endpoint: mean survival time, dose: 200.0 mg/kg/injection, schedule: Q01DX009 (ip), vehicle: Klucel (hydroxypropylcellulose) (HPC).
Where [3] appears, read: T/C endpoint: mean survival time, dose: 400.0 mg/kg/injection, schedule: Q01DX001 (ip), vehicle: saline with Tween-80.
Where [4] appears, read: T/C endpoint: mean survival time, dose: 100.0 mg/kg/injection, schedule: Q01DX009 (ip), vehicle: saline.
Where [5] appears, read: T/C endpoint: mean survival time, dose: 200.0 mg/kg/injection, schedule: Q04DX003 (ip), vehicle: Klucel (hydroxypropylcellulose) (HPC).
Where [6] appears, read: T/C endpoint: mean survival time, dose: 100.0 mg/kg/injection, schedule: Q01DX009 (ip), vehicle: saline with Tween-80.
[7] abbreviates: T/C endpoint: mean survival time, dose: 400.0 mg/kg/injection, schedule: Q04DX003 (ip), vehicle: Klucel (hydroxypropylcellulose) (HPC).
[8] abbreviates: T/C endpoint: mean survival time, dose: 400.0 mg/kg/injection, schedule: Q01DX009 (ip), vehicle: saline with Tween-80.

For the compound `CN1CCN(Cc2c(O)ccc3c4c(c(=O)oc23)CCCC4)CC1`, the survivor count (T/C endpoint: mean survival time, dose: 400.0 mg/kg/injection, schedule: Q01DX001 (ip), vehicle: carboxymethylcellulose (CMC)) was 1 of 4.

Turning to `CC(=O)c1c(O)c(Br)c(C)oc1=O`, the survivor count runs as follows: under setting [1], 3 of 3; under setting [2], 2 of 3.

On to `S=c1[nH]c(=S)c2[nH]cnc(=S)c2[nH]1`, for which the survivor count (T/C endpoint: mean survival time, dose: 50.0 mg/kg/injection, schedule: Q01DX Z (ip), vehicle: carboxymethylcellulose (CMC)) is 3 of 6; the survivor count (T/C endpoint: mean survival time, dose: 100.0 mg/kg/injection, schedule: Q01DX Z (ip), vehicle: carboxymethylcellulose (CMC)) is listed as 1 of 6; the survivor count (T/C endpoint: mean survival time, dose: 200.0 mg/kg/injection, schedule: Q01DX Z (ip), vehicle: carboxymethylcellulose (CMC)) is reported as 0 of 6.

Take `CCOCc1cnc(C)nc1N`: the survivor count under setting [3] was 0 of 3.

Consider `CC(C)(C)OC(=O)NC(CC(N)=O)C(=O)ON1C(=O)CCC1=O` (stereo not drawn), for which the T/C under setting [4] was 125 % of control.

Take `Nc1nc(=O)n(C2CC(O)C(CO)O2)cc1F` (stereo not drawn): the T/C is 128 and 141 % of control (T/C endpoint: mean survival time, dose: 67.0 mg/kg/injection, schedule: Q01DX Z (ip), vehicle: saline); 125 [4 of 6 alive] and 135 % of control (T/C endpoint: mean survival time, dose: 100.0 mg/kg/injection, schedule: Q01DX Z (ip), vehicle: saline); 129 % of control (T/C endpoint: mean survival time, dose: 150.0 mg/kg/injection, schedule: Q01DX Z (ip), vehicle: saline).

`Nc1ccnc2snnc12`: the survivor count under setting [3] is reported as 3 of 6.

As to `COc1ccc(N2CCNCC2)cc1`, the survivor count is listed as 0 of 6 (T/C endpoint: mean survival time, dose: 80.0 mg/kg/injection, schedule: Q01DX001 (ip), vehicle: saline); 0 of 6 (T/C endpoint: mean survival time, dose: 100.0 mg/kg/injection, schedule: Q01DX001 (ip), vehicle: saline); 0 of 6 (T/C endpoint: mean survival time, dose: 200.0 mg/kg/injection, schedule: Q01DX001 (ip), vehicle: saline); 0 of 6 (T/C endpoint: mean survival time, dose: 400.0 mg/kg/injection, schedule: Q01DX001 (ip), vehicle: saline).

Regarding `CCCCCCP(=O)(CCCCCC)C1CCCCC1`, the survivor count is, setting by setting: (T/C endpoint: mean survival time, dose: 100.0 mg/kg/injection, schedule: Q01DX001 (ip), vehicle: saline with Tween-80) 3 of 3; under setting [3], 0 of 3.

With `CCCCCCC(=O)CCCCCC/C=C/CC(O)C(O)C(N)(CO)C(=O)O` (stereo not drawn), the survivor count (T/C endpoint: mean survival time, dose: 3.13 mg/kg/injection, schedule: Q04DX002 (ip), vehicle: saline with Tween-80) is 3 of 3; the survivor count (T/C endpoint: mean survival time, dose: 6.25 mg/kg/injection, schedule: Q04DX002 (ip), vehicle: saline with Tween-80) was 1 of 3; the survivor count (T/C endpoint: mean survival time, dose: 12.5 mg/kg/injection, schedule: Q04DX002 (ip), vehicle: saline with Tween-80) is reported as 0 of 3.

Consider `O=C(NC(CSC(c1ccccc1)c1ccccc1)C(=O)O)OCc1ccccc1` (stereo not drawn), for which the survivor count under setting [2] is reported as 3 of 6 and the survivor count (T/C endpoint: mean survival time, dose: 400.0 mg/kg/injection, schedule: Q01DX009 (ip), vehicle: Klucel (hydroxypropylcellulose) (HPC)) is on record as 0 of 6.

Consider `C1CNC(SCCOCCOCCSC2=NCCN2)=N1`, for which the survivor count under setting [4] is given as 2 of 6; the survivor count (T/C endpoint: mean survival time, dose: 200.0 mg/kg/injection, schedule: Q01DX009 (ip), vehicle: saline) is recorded as 0 of 6; the survivor count (T/C endpoint: mean survival time, dose: 400.0 mg/kg/injection, schedule: Q01DX009 (ip), vehicle: saline) is listed as 0 of 6.

On to `COC(=O)/C=C(\C(=O)OC)N(C)c1ccccc1`, for which the survivor count was 3 of 6 (T/C endpoint: mean survival time, dose: 100.0 mg/kg/injection, schedule: Q01DX001 (ip), vehicle: other) and 0 of 6 (T/C endpoint: mean survival time, dose: 200.0 mg/kg/injection, schedule: Q01DX001 (ip), vehicle: other).

For `NC1(C(=O)O)CCc2ccccc2C1` (stereo not drawn), under setting [5], the survivor count is recorded as 6 of 6.

On to `C[n+]1c(/C=C/c2ccc3c(c2)OCO3)ccc2ccccc21`, for which the T/C (T/C endpoint: mean survival time, dose: 50.0 mg/kg/injection, schedule: Q01DX009 (ip), vehicle: saline with Tween-80) is 126 % of control [5 of 6 alive]. The survivor count by setting is: (T/C endpoint: mean survival time, dose: 75.0 mg/kg/injection, schedule: Q01DX009 (ip), vehicle: gum acacia) 3 of 6; under setting [6], 0 of 6; under setting [5], 1 of 6; under setting [7], 0 of 6.

Consider `C=CCc1c[nH]c(=O)[nH]c1=O.[Hg]`, for which the survivor count by setting is: (T/C endpoint: mean survival time, dose: 50.0 mg/kg/injection, schedule: Q01DX009 (ip), vehicle: Klucel (hydroxypropylcellulose) (HPC)) 0 of 6; (T/C endpoint: mean survival time, dose: 100.0 mg/kg/injection, schedule: Q04DX003 (ip), vehicle: Klucel (hydroxypropylcellulose) (HPC)) 0 of 6; under setting [5], 5 of 6; under setting [7], 0 of 6.

Turning to `NC(N)=N/N=C/c1c(O)ccc2ccccc12`, for the setting “T/C endpoint: mean survival time, dose: 62.5 mg/kg/injection, schedule: Q01DX010 (oral), vehicle: saline”, the T/C is 135 % of control [5 of 6 alive]. Further, the survivor count was 1 of 6 (T/C endpoint: mean survival time, dose: 125.0 mg/kg/injection, schedule: Q01DX010 (oral), vehicle: saline); 1 of 6 (T/C endpoint: mean survival time, dose: 125.0 mg/kg/injection, schedule: Q01DX Z (oral), vehicle: saline); 0 of 6 (T/C endpoint: mean survival time, dose: 250.0 mg/kg/injection, schedule: Q01DX Z (oral), vehicle: saline); 0 of 6 (T/C endpoint: mean survival time, dose: 500.0 mg/kg/injection, schedule: Q01DX Z (oral), vehicle: saline); 0 of 6 (T/C endpoint: mean survival time, dose: 1000.0 mg/kg/injection, schedule: Q01DX Z (oral), vehicle: saline).

Regarding `O=c1ccn(-c2ccccc2)c(=S)[nH]1`, the survivor count under setting [8] is 2 of 6.

For `CNC(=S)N/N=C(/C)CCC/C(C)=N/NC(=S)NC`, the survivor count (T/C endpoint: mean survival time, dose: 50.0 mg/kg/injection, schedule: Q03HX024 (ip), vehicle: Klucel (hydroxypropylcellulose) (HPC)) was 0 of 8; the survivor count under setting [1] is reported as 5 of 8; the survivor count (T/C endpoint: mean survival time, dose: 100.0 mg/kg/injection, schedule: Q03HX024 (ip), vehicle: Klucel (hydroxypropylcellulose) (HPC)) was 0 of 8; the survivor count under setting [2] was 0 of 8.

As to `O=C(O)c1cccc(N=Nc2ccc(N(CCCl)CCCl)cc2)c1`, the survivor count (T/C endpoint: median survival time, dose: 100.0 mg/kg/injection, schedule: Q01DX009 (ip), vehicle: Klucel (hydroxypropylcellulose) (HPC)) was 5 of 6; the survivor count (T/C endpoint: median survival time, dose: 200.0 mg/kg/injection, schedule: Q01DX009 (ip), vehicle: Klucel (hydroxypropylcellulose) (HPC)) is 2 of 6; the survivor count (T/C endpoint: median survival time, dose: 400.0 mg/kg/injection, schedule: Q01DX009 (ip), vehicle: Klucel (hydroxypropylcellulose) (HPC)) is given as 1 of 6.

As to `c1ccc(-c2cc[s+]s2)cc1`, the survivor count was 0 of 6 under setting [6]; 5 of 6 (T/C endpoint: mean survival time, dose: 100.0 mg/kg/injection, schedule: Q04DX003 (ip), vehicle: water); 0 of 6 (T/C endpoint: mean survival time, dose: 200.0 mg/kg/injection, schedule: Q01DX009 (ip), vehicle: saline with Tween-80); 0 of 6 (T/C endpoint: mean survival time, dose: 200.0 mg/kg/injection, schedule: Q04DX003 (ip), vehicle: water); 0 of 6 under setting [8]; 0 of 6 (T/C endpoint: mean survival time, dose: 400.0 mg/kg/injection, schedule: Q04DX003 (ip), vehicle: water).

Take `C=C(C)C(=O)Nc1ccccc1`: the survivor count under setting [7] is reported as 3 of 3.

`COc1ccc2c(c1)N(CCC1CCCCN1C)c1ccccc1S2` (stereo not drawn): the T/C (T/C endpoint: mean survival time, dose: 25.0 mg/kg/injection, schedule: Q01DX009 (ip), vehicle: saline) was 126 % of control [5 of 6 alive]. The survivor count is, setting by setting: (T/C endpoint: mean survival time, dose: 50.0 mg/kg/injection, schedule: Q01DX009 (ip), vehicle: saline) 0 of 6 and 3 of 6; (T/C endpoint: mean survival time, dose: 100.0 mg/kg/injection, schedule: Q04DX003 (ip), vehicle: saline) 3 of 6 and 6 of 6.

For the compound `O=C1CCN/C(=N\[N+](=O)[O-])N1`, the survivor count under setting [3] is 3 of 6.

The values are drawn from PubChem BioAssay AID248 (DTP/NCI, 2004).
